{"source": "patent US20120328588A1", "about": "“COMPOUND PREPARATION AND ITS USES FOR PREVENTION AND TREATMENT OF HEARING IMPAIRMENT” (The Second Military Medical University of Chinese PLA, priority 2010, published 2012)", "key": {"[1]": {"test_system": "guinea pigs exposed to noise", "experiment": "Preventive effect on noise-induced hearing impairment: hearing threshold shift of guinea pigs, drug given two days before noise exposure", "type": "in vivo", "conditions": "effective = mean hearing threshold shift less than 20 dB within 7 days of exposure to noise", "experimental": "Experiments with Hearing Threshold Shift Sixty-four guinea pigs with normal weight and pure white hair were randomly divided into control group, alpha-lipoic acid group, nimodipine group, and compound preparation group. The guinea pigs were exposed to an octave band of noise (OBN) centered at 4 kHz, 115 dB SPL, 4 h per day. Two days before noise exposure, animals in the study groups were administered with the corresponding drug dose as designed, and those in the control group were administered with normal saline (NS). Hearing threshold shift of the animals was determined at different intervals of noise exposure in different groups. The synergistic effect of alpha-lipoic acid and nimodipine on regulating hearing threshold shift was observed and analyzed using q test.\n(§1) Being less than 20 dB was considered as an effective value. The synergistic effect of alpha-lipoic acid and nimodipine was analyzed using q test. Pla=2/8 means that there were 8 guinea pigs in the alpha-lipoic acid group, within which 2 were effective, and the remaining 6 were invalid. The mean of the rest was analogous to Pla=2/8."}, "[2]": {"test_system": "guinea pigs exposed to noise", "experiment": "Therapeutic effect on noise-induced hearing impairment: hearing threshold shift of guinea pigs, drug given intravenously within 7 days after noise exposure", "type": "in vivo", "conditions": "effective = mean hearing threshold shift less than 20 dB within 7 days after noise exposure", "experimental": "Eighty guinea pigs with normal weight and pure white hair were randomly divided into control group, alpha-lipoic acid group, nimodipine group, and compound preparation group. The animals were exposed to an octave band of noise (OBN) centered at 4 kHz, 115 dB SPL, 4 h per day. Animals in the study groups were administered intravenously with the corresponding drug dose as designed, and those in the control group were administered with NS within 7 days after noise exposure. Hearing threshold shift of the animals was determined at different intervals of noise exposure in different groups. The synergistic effect of alpha-lipoic acid and nimodipine on regulating hearing threshold shift was observed and analyzed using q test.\nas §1, with “test. Pla=4/10” for “test. Pla=2/8”, “were 10” for “were 8”, “which 4” for “which 2”, “to Pla=4/10.” for “to Pla=2/8.”"}}, "note": "At least one structure is not confirmed: it was looked up by name or label, or the drawing left a doubt."}
{"smiles": "COCCOC(=O)C1=C(C)NC(C)=C(C(=O)OC(C)C)C1c1cccc([N+](=O)[O-])c1", "note": "(centres unmarked) [NIM, Nimodipine]", "values": [{"measurement": "P (effective guinea pigs / guinea pigs in group)", "setting": "[1]; NIM 2 mg/kg", "value": "Pnim = 2/8"}, {"measurement": "P (effective guinea pigs / guinea pigs in group)", "setting": "[1]; NIM 4 mg/kg", "value": "Pnim = 3/8"}, {"measurement": "P (effective guinea pigs / guinea pigs in group)", "setting": "[1]; NIM 8 mg/kg", "value": "Pnim = 5/8"}, {"measurement": "P (effective guinea pigs / guinea pigs in group)", "setting": "[1]; NIM 16 mg/kg", "value": "Pnim = 5/8"}, {"measurement": "P (effective guinea pigs / guinea pigs in group)", "setting": "[2]; NIM 2 mg/kg intravenously", "value": "Pnim = 1/10"}, {"measurement": "P (effective guinea pigs / guinea pigs in group)", "setting": "[2]; NIM 4 mg/kg intravenously", "value": "Pnim = 3/10"}, {"measurement": "P (effective guinea pigs / guinea pigs in group)", "setting": "[2]; NIM 8 mg/kg intravenously", "value": "Pnim = 3/10"}, {"measurement": "P (effective guinea pigs / guinea pigs in group)", "setting": "[2]; NIM 16 mg/kg intravenously", "value": "Pnim = 3/10"}]}
